Laboratory results from the supplement of paper PMC8256030.
Values joined by “and” are separate entries in the source; they are usually repeats but may differ in a detail not shown here. Equal entries are not always repeated. This is one part of the list. Repeats in this data set agree poorly, so a single value says little.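 HEK293T cells were given each compound shortly before transfection with a reporter in which red mCherry is followed by the SARS-CoV-2 frameshift element and then GFP in the −1 frame, so GFP appears only after frameshifting.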

The compounds below were run on HEK293T (assay: percent viability (nuclei count) relative to control; higher = more viable cells). Settings: 10 µM; 24 h.

SMILES | percent viability
CC(=O)c1ccc2c(c1)N(CCCN1CCC(CCO)CC1)c1ccccc1S2 [piperacetazine] | 353%
CC(=O)O[C@]1(C(C)=O)CC[C@H]2[C@@H]3C[C@H](C)C4=CC(=O)CC[C@]4(C)[C@H]3CC[C@@]21C [Medroxyprogesterone 17-Acetate] | 209%
CN(C)c1cc(NC(=O)CNC(C)(C)C)c(O)c2c1CC1CC3C(N(C)C)C(=O)C(C(N)=O)=C(O)C3(O)C(=O)C1=C2O (configuration not stated) [Tygacil] | 219%
CC(C)(C)NC[C@H](O)COc1cccc2c1CCCC2=O [levobunolol] | 261% and 95.4%
CCCCCCc1ccc(O)cc1O | 180%
O=c1[nH]c2ccccc2n1C1CCN(CCOc2ccccc2)CC1 [oxiperomide] | 148%
Nc1ccn([C@H]2CC[C@@H](CO)O2)c(=O)n1 [zalcitabine] | 218% and 239%
Clc1cccc(C(c2ccc3[nH]cnc3c2)n2ccnc2)c1 (configuration not stated) [liarozole] | 153%
O=C(COc1ccc(Cl)cc1)N1CCN(Cc2ccc3c(c2)OCO3)CC1 [fipexide] | 321%
O=C(O)/C=C/c1ccc(Cn2ccnc2)cc1 [ozagrel] | 243%
O=C(O)c1c(O)c(-c2ccccc2)nc2ccccc12 [oxycinchophen] | 118%
COc1cc([C@@H]2c3cc4c(cc3[C@@H](O[C@@H]3O[C@@H]5CO[C@@H](C)O[C@H]5[C@H](O)[C@H]3O)[C@H]3COC(=O)[C@H]23)OCO4)cc(OC)c1O | 125%
COC(=O)[C@H](Cc1ccccc1)NC(=O)[C@@H](N)CC(=O)O | 262%
C/C=C/C/C=C/CCC(=O)[C@H]1O[C@H]1C(N)=O [Helicocerin] | 323%
CC(=O)N[C@H](Cc1ccc2ccccc2c1)C(=O)N[C@H](Cc1ccc(Cl)cc1)C(=O)N[C@H](Cc1cccnc1)C(=O)N[C@@H](CO)C(=O)N[C@@H](Cc1ccc(O)cc1)C(=O)N[C@H](CCCNC(N)=O)C(=O)N[C@@H](CC(C)C)C(=O)N[C@@H](CCCNC(=N)N)C(=O)N1CCC[C@H]1C(=O)N[C@H](C)C(N)=O [Cetrotide] | 306%
CC(=O)OCC(=O)[C@@]1(O)[C@H](OC(C)=O)C[C@H]2[C@@H]3CCC4=CC(=O)C=C[C@]4(C)[C@@]3(F)[C@@H](O)C[C@@]21C | 114%
COC(=O)Nc1nc2cc(C(=O)c3ccc(F)cc3)ccc2[nH]1 [flubendazole] | 23.6%
CN(C)CCCN1c2ccccc2CCc2ccccc21 [imipramine] | 315% and 219%
CC1(C)OC[C@@H]2O[C@@]3(C(=O)O)OC(C)(C)O[C@H]3[C@@H]2O1 [diprogulic acid] | 93.6%
CCOP(=O)(Cc1ccc(C(=O)Nc2ccc(Br)cc2C#N)cc1)OCC [ibrolipim] | 130%
CC[C@]1(O)C[C@@H]2CN(CCc3c([nH]c4ccccc34)[C@@](C(=O)OC)(c3cc4c(cc3OC)N(C)[C@H]3[C@@](O)(C(=O)OC)[C@H](OC(C)=O)[C@]5(CC)C=CCN6CC[C@]43[C@@H]65)C2)C1 [Velban] | 27%
CN1CCN(C2=Nc3ccccc3Oc3ccc(Cl)cc32)CC1 [loxapine] | 231%
CN1CCC[C@@H]1CCO[C@](C)(c1ccccc1)c1ccc(Cl)cc1 [Clemastine] | 398%
Nc1cccc(-n2ccccc2=O)c1 [amphenidone] | 182%
NCC[C@H](O)C(=O)N[C@@H]1C[C@H](N)[C@@H](O[C@H]2O[C@H](CN)[C@@H](O)[C@H](O)[C@H]2O)[C@H](O)[C@H]1O[C@H]1O[C@H](CO)[C@@H](O)[C@H](N)[C@H]1O [amikacin] | 271% and 161%
Cc1cc(Cc2cnc(N)nc2N)c2cccnc2c1N(C)C [baquiloprim] | 173%
CC(=O)CC(c1ccccc1)c1c(O)c2ccccc2oc1=O (configuration not stated) | 177%

Fetched by structure from the entries so far:
SMILES | percent viability
CN1CCN(C2=Nc3ccccc3Oc3ccc(Cl)cc32)CC1 [loxapine] | 231%
CC(=O)OCC(=O)[C@@]1(O)[C@H](OC(C)=O)C[C@H]2[C@@H]3CCC4=CC(=O)C=C[C@]4(C)[C@@]3(F)[C@@H](O)C[C@@]21C | 114%
